Measured values from the supplement of paper PMC11006884.
The list shows a part of the results, in another mix than the full data.

Chains of the proteins cited; added tags and fusions are not shown. Lines headed by an entry give the natural chain unless they say otherwise; changes in a name come on top.
UniProt Q69YN2: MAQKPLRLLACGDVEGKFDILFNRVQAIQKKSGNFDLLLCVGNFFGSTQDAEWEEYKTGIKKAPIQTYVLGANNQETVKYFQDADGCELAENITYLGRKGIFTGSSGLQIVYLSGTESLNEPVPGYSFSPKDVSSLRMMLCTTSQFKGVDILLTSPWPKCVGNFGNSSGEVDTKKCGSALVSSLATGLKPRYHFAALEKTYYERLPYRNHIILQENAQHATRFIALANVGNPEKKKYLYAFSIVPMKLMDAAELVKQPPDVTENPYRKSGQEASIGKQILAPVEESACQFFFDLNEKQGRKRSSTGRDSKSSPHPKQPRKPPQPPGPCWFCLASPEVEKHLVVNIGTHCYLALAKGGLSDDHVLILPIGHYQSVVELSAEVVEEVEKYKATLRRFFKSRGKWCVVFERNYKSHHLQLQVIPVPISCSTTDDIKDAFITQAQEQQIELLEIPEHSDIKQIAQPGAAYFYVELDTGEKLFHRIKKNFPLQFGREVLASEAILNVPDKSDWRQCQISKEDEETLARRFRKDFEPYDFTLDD
UniProt Q6PJT7: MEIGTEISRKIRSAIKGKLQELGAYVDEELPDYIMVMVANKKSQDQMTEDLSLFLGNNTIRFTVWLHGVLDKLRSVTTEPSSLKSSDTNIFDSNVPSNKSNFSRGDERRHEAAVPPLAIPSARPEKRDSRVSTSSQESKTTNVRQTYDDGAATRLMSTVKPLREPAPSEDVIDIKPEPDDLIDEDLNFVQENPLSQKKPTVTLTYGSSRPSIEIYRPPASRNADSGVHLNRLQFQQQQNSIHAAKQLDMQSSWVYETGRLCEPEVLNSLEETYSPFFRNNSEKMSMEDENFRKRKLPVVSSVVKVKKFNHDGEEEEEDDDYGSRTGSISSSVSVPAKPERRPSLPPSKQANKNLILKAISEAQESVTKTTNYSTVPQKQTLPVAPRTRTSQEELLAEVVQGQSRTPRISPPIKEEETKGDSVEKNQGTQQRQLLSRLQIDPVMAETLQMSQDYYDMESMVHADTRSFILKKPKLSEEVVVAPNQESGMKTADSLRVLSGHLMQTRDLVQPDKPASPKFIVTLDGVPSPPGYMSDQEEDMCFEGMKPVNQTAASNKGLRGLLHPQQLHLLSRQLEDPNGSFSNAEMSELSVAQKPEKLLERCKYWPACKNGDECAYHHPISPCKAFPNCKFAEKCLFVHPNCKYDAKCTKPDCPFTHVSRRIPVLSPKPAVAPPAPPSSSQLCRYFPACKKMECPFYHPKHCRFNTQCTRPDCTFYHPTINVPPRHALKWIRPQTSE
UniProt Q5JRX3: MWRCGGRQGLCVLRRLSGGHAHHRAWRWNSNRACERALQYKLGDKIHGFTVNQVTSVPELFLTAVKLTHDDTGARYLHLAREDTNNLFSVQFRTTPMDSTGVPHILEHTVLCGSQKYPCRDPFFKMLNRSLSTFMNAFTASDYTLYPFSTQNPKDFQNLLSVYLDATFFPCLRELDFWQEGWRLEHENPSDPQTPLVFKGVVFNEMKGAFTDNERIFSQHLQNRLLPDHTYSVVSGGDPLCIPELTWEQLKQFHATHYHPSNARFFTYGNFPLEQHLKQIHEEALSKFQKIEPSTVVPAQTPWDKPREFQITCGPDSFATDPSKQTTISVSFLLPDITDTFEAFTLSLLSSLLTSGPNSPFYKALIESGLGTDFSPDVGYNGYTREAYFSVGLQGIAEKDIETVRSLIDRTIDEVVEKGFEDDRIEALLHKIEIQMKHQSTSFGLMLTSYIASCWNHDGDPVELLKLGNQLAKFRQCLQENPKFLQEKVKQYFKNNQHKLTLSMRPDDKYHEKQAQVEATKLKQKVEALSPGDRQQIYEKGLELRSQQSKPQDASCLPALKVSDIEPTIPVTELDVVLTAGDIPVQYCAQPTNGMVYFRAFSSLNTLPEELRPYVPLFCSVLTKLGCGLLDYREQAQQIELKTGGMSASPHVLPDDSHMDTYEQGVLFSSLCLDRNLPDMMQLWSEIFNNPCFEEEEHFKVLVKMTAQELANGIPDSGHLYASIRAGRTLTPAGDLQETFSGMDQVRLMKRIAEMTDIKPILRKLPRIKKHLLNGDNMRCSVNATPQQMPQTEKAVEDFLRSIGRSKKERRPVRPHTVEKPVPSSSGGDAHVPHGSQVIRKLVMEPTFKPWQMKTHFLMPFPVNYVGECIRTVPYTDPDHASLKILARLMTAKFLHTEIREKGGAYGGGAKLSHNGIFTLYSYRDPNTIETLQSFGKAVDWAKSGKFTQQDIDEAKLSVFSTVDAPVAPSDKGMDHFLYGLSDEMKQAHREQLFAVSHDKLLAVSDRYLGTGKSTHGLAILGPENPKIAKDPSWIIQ
UniProt Q6S8J3, whole entry, looked up: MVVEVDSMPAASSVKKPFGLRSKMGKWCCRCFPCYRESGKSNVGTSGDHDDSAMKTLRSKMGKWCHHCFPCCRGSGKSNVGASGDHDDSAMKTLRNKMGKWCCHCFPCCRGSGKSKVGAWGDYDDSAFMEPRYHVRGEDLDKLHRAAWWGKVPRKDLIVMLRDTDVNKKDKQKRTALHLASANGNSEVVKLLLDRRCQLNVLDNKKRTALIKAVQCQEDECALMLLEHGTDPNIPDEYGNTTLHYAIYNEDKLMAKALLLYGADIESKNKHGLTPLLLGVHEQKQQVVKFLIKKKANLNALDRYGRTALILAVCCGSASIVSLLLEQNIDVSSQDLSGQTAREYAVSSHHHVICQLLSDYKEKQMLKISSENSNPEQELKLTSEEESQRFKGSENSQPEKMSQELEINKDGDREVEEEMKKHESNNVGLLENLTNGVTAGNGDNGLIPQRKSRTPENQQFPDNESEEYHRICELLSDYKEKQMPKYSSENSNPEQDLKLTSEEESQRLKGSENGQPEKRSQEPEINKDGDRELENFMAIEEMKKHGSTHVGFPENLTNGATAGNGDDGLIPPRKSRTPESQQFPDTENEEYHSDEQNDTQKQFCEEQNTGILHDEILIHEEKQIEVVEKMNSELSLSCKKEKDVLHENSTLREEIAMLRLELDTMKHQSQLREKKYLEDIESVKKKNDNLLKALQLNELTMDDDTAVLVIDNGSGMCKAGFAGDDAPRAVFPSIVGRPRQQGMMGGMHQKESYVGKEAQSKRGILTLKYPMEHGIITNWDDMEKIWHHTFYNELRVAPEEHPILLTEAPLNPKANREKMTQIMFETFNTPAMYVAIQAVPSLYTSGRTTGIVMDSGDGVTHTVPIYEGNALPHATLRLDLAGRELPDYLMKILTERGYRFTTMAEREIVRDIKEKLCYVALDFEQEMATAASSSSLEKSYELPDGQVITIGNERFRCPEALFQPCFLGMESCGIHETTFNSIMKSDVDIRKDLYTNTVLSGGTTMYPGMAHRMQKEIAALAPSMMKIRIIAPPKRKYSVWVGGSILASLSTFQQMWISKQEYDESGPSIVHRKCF
UniProt Q5T8D3: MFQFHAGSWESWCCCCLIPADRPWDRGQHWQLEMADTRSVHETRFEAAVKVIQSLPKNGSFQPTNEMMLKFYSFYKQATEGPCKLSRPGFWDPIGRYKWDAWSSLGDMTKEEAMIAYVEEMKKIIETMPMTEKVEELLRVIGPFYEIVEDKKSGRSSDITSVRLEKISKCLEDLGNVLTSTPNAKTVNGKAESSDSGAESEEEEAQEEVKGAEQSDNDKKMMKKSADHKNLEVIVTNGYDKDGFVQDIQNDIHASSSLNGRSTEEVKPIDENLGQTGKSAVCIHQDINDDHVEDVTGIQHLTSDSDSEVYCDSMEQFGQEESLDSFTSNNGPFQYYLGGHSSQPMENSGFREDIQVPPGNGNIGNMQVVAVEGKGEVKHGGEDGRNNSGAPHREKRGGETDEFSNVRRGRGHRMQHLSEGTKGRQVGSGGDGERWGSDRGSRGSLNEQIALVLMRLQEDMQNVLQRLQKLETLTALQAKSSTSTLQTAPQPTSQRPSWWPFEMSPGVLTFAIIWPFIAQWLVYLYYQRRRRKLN
UniProt Q5VT52: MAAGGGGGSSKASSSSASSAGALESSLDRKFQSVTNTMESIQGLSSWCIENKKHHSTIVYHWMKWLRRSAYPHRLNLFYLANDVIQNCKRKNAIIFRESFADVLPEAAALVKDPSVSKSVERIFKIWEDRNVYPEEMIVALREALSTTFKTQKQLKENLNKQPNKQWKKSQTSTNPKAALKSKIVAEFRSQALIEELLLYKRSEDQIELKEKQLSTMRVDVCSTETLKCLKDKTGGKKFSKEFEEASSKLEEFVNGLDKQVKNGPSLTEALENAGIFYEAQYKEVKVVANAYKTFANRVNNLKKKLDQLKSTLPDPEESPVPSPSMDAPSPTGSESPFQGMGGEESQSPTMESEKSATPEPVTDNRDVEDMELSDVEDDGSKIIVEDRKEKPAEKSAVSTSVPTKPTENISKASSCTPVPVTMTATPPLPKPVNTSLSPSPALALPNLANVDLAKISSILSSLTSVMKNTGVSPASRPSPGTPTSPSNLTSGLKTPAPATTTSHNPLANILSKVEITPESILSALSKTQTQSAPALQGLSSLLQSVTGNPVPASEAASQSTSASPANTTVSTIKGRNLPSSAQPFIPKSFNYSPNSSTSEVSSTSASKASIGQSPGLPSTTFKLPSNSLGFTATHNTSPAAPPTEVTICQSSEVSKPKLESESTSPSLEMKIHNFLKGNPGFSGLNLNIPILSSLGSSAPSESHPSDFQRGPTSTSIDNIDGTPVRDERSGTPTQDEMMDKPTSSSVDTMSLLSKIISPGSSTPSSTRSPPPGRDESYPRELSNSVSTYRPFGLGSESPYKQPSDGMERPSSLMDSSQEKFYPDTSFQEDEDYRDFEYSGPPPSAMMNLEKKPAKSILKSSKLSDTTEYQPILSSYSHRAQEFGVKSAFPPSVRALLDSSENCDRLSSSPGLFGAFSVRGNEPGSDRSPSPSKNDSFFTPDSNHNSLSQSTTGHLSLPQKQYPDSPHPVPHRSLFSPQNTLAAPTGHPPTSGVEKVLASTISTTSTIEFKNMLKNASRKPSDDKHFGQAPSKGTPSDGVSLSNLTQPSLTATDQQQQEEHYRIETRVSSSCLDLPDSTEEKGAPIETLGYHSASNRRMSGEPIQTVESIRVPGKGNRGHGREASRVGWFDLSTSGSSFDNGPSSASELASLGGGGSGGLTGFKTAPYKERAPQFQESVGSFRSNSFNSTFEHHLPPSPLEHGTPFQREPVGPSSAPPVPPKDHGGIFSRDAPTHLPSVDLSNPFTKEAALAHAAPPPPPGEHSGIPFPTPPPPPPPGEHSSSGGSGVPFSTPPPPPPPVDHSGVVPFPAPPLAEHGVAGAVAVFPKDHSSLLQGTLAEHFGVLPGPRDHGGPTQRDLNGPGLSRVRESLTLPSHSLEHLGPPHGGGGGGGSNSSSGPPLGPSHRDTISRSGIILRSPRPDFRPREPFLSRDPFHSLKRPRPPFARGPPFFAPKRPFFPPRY
UniProt Q5VT66: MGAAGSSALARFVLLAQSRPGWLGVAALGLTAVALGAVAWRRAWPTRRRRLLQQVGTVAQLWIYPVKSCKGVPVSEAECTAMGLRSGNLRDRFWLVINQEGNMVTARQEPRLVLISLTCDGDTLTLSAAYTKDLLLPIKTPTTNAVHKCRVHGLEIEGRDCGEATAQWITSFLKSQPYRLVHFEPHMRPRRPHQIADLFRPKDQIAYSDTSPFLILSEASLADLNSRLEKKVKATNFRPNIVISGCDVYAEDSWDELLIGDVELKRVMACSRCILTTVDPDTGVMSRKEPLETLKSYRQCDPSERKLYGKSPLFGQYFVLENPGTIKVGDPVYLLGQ
UniProt Q68EM7: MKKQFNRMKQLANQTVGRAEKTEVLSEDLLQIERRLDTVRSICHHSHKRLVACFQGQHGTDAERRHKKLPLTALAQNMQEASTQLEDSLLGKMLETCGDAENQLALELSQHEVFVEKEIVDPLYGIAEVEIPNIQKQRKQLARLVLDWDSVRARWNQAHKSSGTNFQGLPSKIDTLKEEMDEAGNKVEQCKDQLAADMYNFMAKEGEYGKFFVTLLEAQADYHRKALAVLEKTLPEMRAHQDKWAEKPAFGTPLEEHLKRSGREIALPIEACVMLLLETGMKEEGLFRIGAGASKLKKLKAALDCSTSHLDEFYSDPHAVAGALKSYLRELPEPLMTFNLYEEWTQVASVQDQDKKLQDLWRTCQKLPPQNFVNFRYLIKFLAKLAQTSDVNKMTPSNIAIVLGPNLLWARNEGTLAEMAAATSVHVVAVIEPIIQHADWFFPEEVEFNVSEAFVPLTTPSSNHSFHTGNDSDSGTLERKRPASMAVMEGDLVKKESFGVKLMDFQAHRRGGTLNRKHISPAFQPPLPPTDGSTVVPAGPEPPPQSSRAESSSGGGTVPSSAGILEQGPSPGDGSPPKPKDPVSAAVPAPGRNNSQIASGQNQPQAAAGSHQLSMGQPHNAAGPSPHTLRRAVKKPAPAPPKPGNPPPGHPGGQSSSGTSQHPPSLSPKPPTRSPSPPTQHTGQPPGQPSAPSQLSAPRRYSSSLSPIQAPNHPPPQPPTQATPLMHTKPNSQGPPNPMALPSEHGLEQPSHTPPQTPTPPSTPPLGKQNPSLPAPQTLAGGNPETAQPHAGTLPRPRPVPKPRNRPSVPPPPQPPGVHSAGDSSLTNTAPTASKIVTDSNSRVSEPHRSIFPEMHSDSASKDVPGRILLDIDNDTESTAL

These targets were tested with COC(=O)C#Cc1ccccc1 [methyl 3-phenylpropiolate] (assay: log2 ratio of iodoacetamide-alkyne labeling of the cysteine site, DMSO over compound (competition); higher = stronger covalent engagement of the cysteine by the compound, active = 1 or more). Conditions: 500 µM; treatment time 1 h; system: HEK293T cell lysate.
How it was run: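 Three replicates, each with duplicate channels, were prepared from HEK293T lysate (2 mg/mL) treated with vehicle or electrophile at 500 µM for 1 h at ambient temperature. Iodoacetamide alkyne was then applied for 1 h, and samples were clicked to sCIP-TMT reagents, pooled, trypsin-digested overnight at 37 °C, enriched on streptavidin, acid-eluted and analysed on Orbitrap Eclipse LC-MS/MS with FAIMS, with FragPipe quantification. The log2 competition ratio per cysteine is the mean control-channel divided by the mean compound-channel reporter intensity. Cysteines quantified in only one replicate were left out.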

Row | Target | log2 ratio of iodoacetamide-alkyne labeling
1 | WDR73 C352 (UniProt Q6P4I2) | inactive: -0.0916
2 | ZNF318 C1903 (UniProt Q5VUA4) | inactive: 0.31
3 | ANGEL2 C158 (UniProt Q5VTE6) | inactive: -0.171
4 | UniProt Q6P2H3_C527 | inactive: -0.0686
5 | RIF1 C1139 (UniProt Q5UIP0) | inactive: 0.189
6 | MPRIP C831 (UniProt Q6WCQ1) | inactive: 0.173
7 | SH3PXD2A C384 (UniProt Q5TCZ1) | inactive: 0.443
8 | ATAD2 C635 (UniProt Q6PL18) | inactive: 0.934
9 | RRP12 C31 (UniProt Q5JTH9) | active: 1.26
10 | GIGYF2 C289 (UniProt Q6Y7W6) | inactive: -0.00206
11 | CWF19L1 C160 (UniProt Q69YN2) | inactive: 0.154
12 | ZC3H14 C707 (UniProt Q6PJT7) | inactive: -0.0936
13 | AARS2 C750 (UniProt Q5JTZ9) | inactive: 0.846
14 | ZC3H14 C622 (UniProt Q6PJT7) | inactive: -0.0943
15 | PITRM1 C241 (UniProt Q5JRX3) | inactive: 0.147
16 | TET2 C332 (UniProt Q6N021) | inactive: 0.594
17 | ANKRD54 C185 (UniProt Q6NXT1) | inactive: 0.189
18 | NUP188 C95 (UniProt Q5SRE5) | inactive: -0.0589
19 | EDC4 C976 (UniProt Q6P2E9) | inactive: 0.224

Reprinted at random: 2 entries already listed, in no set order.
Row | Target | log2 ratio of iodoacetamide-alkyne labeling
12 | ZC3H14 C707 (UniProt Q6PJT7) | inactive: -0.0936
4 | UniProt Q6P2H3_C527 | inactive: -0.0686

The results go on:

Row | Target | log2 ratio of iodoacetamide-alkyne labeling
20 | CEP78 C653 (UniProt Q5JTW2) | inactive: 0.338
21 | ZC3H13 C1666 (UniProt Q5T200) | inactive: 0.206
22 | MTHFD1L C778 (UniProt Q6UB35) | active: 1.1
23 | SARM1 C311 (UniProt Q6SZW1) | inactive: 0.5
24 | UniProt Q6S8J3_C972 | inactive: 0.0652
25 | NFXL1 C212 (UniProt Q6ZNB6) | inactive: -0.0301
26 | TAF2 C1093 (UniProt Q6P1X5) | inactive: 0.285
27 | ACBD5 C170 (UniProt Q5T8D3) | inactive: 0.29
28 | UniProt Q5H9R7_C500 | inactive: 0.52
29 | RPRD2 C903 (UniProt Q5VT52) | inactive: 0.34
30 | FAAP20 C70 (UniProt Q6NZ36) | inactive: 0.0415
31 | DHX57 C65 (UniProt Q6P158) | inactive: 0.72
32 | NT5DC1 C63 (UniProt Q5TFE4) | inactive: 0.408
33 | MARC1 C273 (UniProt Q5VT66) | inactive: 0.102
34 | RPRD2 C1071 (UniProt Q5VT52) | inactive: -0.00937
35 | UniProt Q6ZNW5_C64 | inactive: 0.0733
36 | PITRM1 C556 (UniProt Q5JRX3) | inactive: 0.0671
37 | ARHGAP17 C53 (UniProt Q68EM7) | inactive: 0.283
